This series deals with SEB-1 (native, identified by MS) (Neurospora crassa) (UniProt Q7SH58). The series can be described thus: pull-down, MS identification. As to conditions: 5'-biotin on strand 1; protein in an extract; residues 1-575; label: biotin.

For at least one entry, the source does not settle the construct or the ends of the probe. At least one result comes from cells or an extract, where the contact may be indirect. At least one verdict was read from the data and is not stated in words by the source.

Turning to “GTAATACGACTCTTCAAGGGGGATTCAAGGGGGAT (double strand) [bioSTRE1-1F/STRE1-2R]”, the binding result was “binds”.

The values above are taken from PMC4856084.
